Measurements from article PMC12386624.
These are yes or no findings as the source states them, for the method shown. Binding seen in cells or lysates may run through a third protein. Some binding calls cover weakened binding; strength is not graded here.

Amino acid sequences for entries named in this document (tags omitted). A change or cut given only in a name is not applied to a line headed by its entry. Chains listed by the source or under a name are the forms on record and can include a tag or linker.
UniProt P18850: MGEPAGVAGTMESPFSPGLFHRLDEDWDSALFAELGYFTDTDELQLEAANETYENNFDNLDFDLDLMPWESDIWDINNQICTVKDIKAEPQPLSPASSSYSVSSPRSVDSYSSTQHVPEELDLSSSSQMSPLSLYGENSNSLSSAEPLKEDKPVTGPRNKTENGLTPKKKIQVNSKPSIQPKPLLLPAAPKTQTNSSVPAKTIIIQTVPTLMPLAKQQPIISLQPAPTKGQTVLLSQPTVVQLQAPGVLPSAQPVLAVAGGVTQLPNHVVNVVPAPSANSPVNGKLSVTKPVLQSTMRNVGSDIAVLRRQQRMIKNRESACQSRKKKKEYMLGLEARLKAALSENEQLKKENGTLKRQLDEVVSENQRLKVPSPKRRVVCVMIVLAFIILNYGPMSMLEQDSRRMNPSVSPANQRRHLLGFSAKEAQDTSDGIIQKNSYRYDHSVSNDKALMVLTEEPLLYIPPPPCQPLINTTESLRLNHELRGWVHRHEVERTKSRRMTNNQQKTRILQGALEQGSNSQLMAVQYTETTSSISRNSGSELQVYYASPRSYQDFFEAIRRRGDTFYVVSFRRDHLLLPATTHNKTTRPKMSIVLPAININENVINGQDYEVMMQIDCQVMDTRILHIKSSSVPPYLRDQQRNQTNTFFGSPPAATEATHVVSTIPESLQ
STK26 (MST4) (Q9P289-3, form named): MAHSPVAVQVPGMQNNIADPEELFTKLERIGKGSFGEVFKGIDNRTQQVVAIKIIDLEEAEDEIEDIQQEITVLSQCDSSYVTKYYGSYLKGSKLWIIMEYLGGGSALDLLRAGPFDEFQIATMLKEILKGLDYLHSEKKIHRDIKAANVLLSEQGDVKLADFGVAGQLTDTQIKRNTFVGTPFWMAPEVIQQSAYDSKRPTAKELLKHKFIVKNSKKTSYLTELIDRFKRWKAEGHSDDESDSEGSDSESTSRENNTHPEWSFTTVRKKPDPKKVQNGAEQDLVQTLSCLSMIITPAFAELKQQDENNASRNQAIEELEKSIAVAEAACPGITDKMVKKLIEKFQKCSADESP

Biological target: 90 kDa ATF6 (p90) (human (endogenous in SW480)) (UniProt P18850)
Assay: co-IP; endogenous proteins in SW480 cell lysate; lysis buffer 20 mM Tris-HCl pH 7.4, 150 mM NaCl, 0.5% Triton X-100 with protease and phosphatase inhibitors; 1-3 μg antibody and protein A/G agarose beads, 4 °C overnight; three washes, SDS-PAGE

binding: binds
Substance: STK26 (MST4) (from UniProt Q9P289-3 1-354) (enzyme)
